The other results are listed elsewhere or left out. Further columns of the screen follow, without active or inactive calls. The list favours compounds with an active or inconclusive main result. The note in brackets gives the kind of curve behind each potency; many fits are weak.
Experiment: qHTS Assay for Modulators of Lamin A Splicing
Conditions: HeLa LMNA splicing GFP/RFP minigene ratio, 48 h
Outline: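 Read-out is the ratio of GFP to DsRed2 object intensity, acquired by 488 nm laser-scanning cytometry on HeLa lamin A-EGFP minigene reporter cells. Compound incubation 48 hrs at 37 °C in Opti-MEM with 2% FBS; DMSO 0.5% final.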

[1] = measured here: RFP viability control channel
[2] = measured here: GFP splicing reporter channel

Row | SMILES | AC50 [1] | AC50 [2]
1 | O=C(NCc1ccccc1)c1ccc(S(=O)(=O)C(F)F)cc1 | 22.4 µM [rising, single point] | 
2 | COc1ccccc1-c1cc(NCc2cccc(C)c2)ncn1 | 12.6 µM [falling, partial curve] | 12.6 µM [falling, partial curve]
3 | Cc1cccc(C)c1N1CCN(S(=O)(=O)c2ccc(F)cc2)CC1 | 31.6 µM [rising, single point] | 
4 | COc1cccc(/C=N/Nc2nn3cnnc3c3ccccc23)c1 | 10 µM [rising, partial curve, poor fit] | 
5 | O=C(/C=C/c1ccco1)Nc1ccccn1 | 2.82 µM [rising, full curve] | 
6 | N#C/C(=C\Nc1ccccc1O)c1nc2ccccc2o1 | 15.8 µM [rising, single point] | 
7 | CC1CN/C(=C\C(=O)c2ccc(Br)cc2)C(=O)N1 (centres undefined) | 0.708 µM [falling, full curve, poor fit] | 
8 | CC(C)c1ccc(NC(=O)CSc2nnc(-c3ccccn3)n2C)cc1 | 12.6 µM [rising, single point] | 
9 | CCCc1nc(N2CCN(C)CC2)c2sc(=S)n(-c3ccccc3)c2n1 | 1.26 µM [rising, full curve, poor fit] | 
10 | Cc1[nH]c2ccccc2c1/C=N/NC(=O)c1cccc([N+](=O)[O-])c1 |  | 0.708 µM [falling, full curve]
11 | COc1nc(N2CCOCC2)nc(C)c1[N+](=O)[O-] |  | 14.1 µM [rising, single point]
12 | O=C(Nc1ccc(N2CCN(C(=O)c3ccc(Cl)cc3)CC2)cc1)c1ccc([N+](=O)[O-])o1 | 5.62 µM [falling, partial curve] | 0.316 µM [falling, full curve]
13 | O=C(CCCN1C(=O)/C(=C\c2ccco2)SC1=S)Nc1ccc2ccccc2c1 | 2.24 µM [rising, full curve, poor fit] | 
14 | CCCN1CCN(c2ncnc3sc(C(=O)Nc4ccc(OC(F)(F)F)cc4)c(C)c23)CC1 | 2.82 µM [rising, partial curve, poor fit] | 
15 | COc1ccc(-n2nnnc2SCC(=O)c2ccc(OC)c(OC)c2)cc1 | 35.5 µM [rising, single point] | 
16 | CCn1ncc(C2=NOC(C(=O)Nc3ccc4c(c3)OCO4)C2)c1C (centres undefined) | 12.6 µM [rising, partial curve] | 12.6 µM [rising, partial curve]
17 | COc1ccc(C(=O)C2CCCN(C(=O)C3=CCCC3)C2)cc1OC (centres undefined) |  | 11.2 µM [rising, partial curve]
18 | CCCn1cnc2c1c(=O)n(CCCCC(C)=O)c(=O)n2C | 0.0501 µM [rising, full curve, poor fit] | 
19 | O=C1N/C(=C/c2cccs2)C(=O)N1Cc1ccc(F)cc1 | 0.316 µM [falling, full curve, poor fit] | 3.98 µM [falling, full curve, poor fit]

From no. 8 up to 10, copied from above:
Row | SMILES | AC50 [1] | AC50 [2]
8 | CC(C)c1ccc(NC(=O)CSc2nnc(-c3ccccn3)n2C)cc1 | 12.6 µM [rising, single point] | 
9 | CCCc1nc(N2CCN(C)CC2)c2sc(=S)n(-c3ccccc3)c2n1 | 1.26 µM [rising, full curve, poor fit] | 
10 | Cc1[nH]c2ccccc2c1/C=N/NC(=O)c1cccc([N+](=O)[O-])c1 |  | 0.708 µM [falling, full curve]

Next structures

Row | SMILES | AC50 [1] | AC50 [2]
20 | O=S(=O)(NCCc1csc(-c2cccnc2)n1)c1ccc(Cl)s1 | 14.1 µM [rising, single point] | 
21 | O=C(CS(=O)(=O)c1cccc2nsnc12)N1CCN(c2ccc(F)cc2)CC1 | 0.398 µM [rising, full curve, poor fit] | 0.112 µM [rising, full curve, poor fit]
22 | CCCCN(CC)CCCNC(=O)c1ccc2c(c1)N(Cc1ccc(C)cc1)C(=O)c1ccccc1S2 | 22.4 µM [falling, single point] | 14.1 µM [falling, single point]
23 | COc1ccc(S(=O)(=O)N2CCN(CCC(=O)Nc3ccc(F)cc3)CC2)cc1 | 22.4 µM [rising, partial curve] | 11.2 µM [rising, partial curve]
24 | CNC(=S)N1N=C(c2ccccc2)CC1c1ccc(Br)cc1 (centres undefined) | 35.5 µM [rising, single point] | 22.4 µM [rising, single point]
25 | CCOc1ccc(CCNC(=O)c2cc3n(n2)CCCN(Cc2ccc(C)cc2)C3=O)cc1OCC | 15.8 µM [rising, partial curve, poor fit] | 
26 | C/C(=N\NC(=O)CNc1cccc(Cl)c1C)c1cccs1 | 15.8 µM [falling, single point] | 
27 | COc1ccc(CN(Cc2ccccn2)S(=O)(=O)c2ccc(-n3cnnn3)c(OC)c2)cc1 | 20 µM [rising, single point] | 
28 | Cc1ccc(-c2cc(C(=O)N3N=C(C(F)F)CC3(O)C(F)F)c3ccccc3n2)cc1C (centres undefined) | 14.1 µM [rising, partial curve] | 4.47 µM [rising, partial curve]
29 | CO/N=C(\C(=O)N[C@@H]1C(=O)N2C(C(=O)O)=C(CSc3nc(=O)c(O)nn3C)CSC12)c1csc(N)n1 (some centres undefined) |  | 0.00316 µM [rising, full curve, poor fit]
30 | CCCNS(=O)(=O)c1ccc(NC(=O)c2ccccn2)cc1 | 35.5 µM [rising, single point] | 31.6 µM [rising, single point]
31 | O=C(O)CSc1nnc2c(n1)[nH]c1ccccc12 | 11.2 µM [falling, partial curve] | 11.2 µM [falling, partial curve]
32 | CCOC(=O)C(C(=O)OCC)C(C)(C)/C(C)=N\Nc1ccc([N+](=O)[O-])cc1[N+](=O)[O-] | 14.1 µM [rising, partial curve] | 
33 | CCN(CC(=O)Nc1ccc(N2CCOCC2)cc1)C(=O)c1ccc(C#N)cc1 | 0.501 µM [falling, full curve, poor fit] | 
34 | Cc1ccc(N/C=C(/C#N)c2ccsc2)cc1 | 12.6 µM [rising, single point] | 10 µM [rising, partial curve, poor fit]
35 | CCc1cccc(NC(=O)Cn2c(=O)n(CC3CCC(C(=O)NC)CC3)c(=O)c3sccc32)c1 (centres undefined) |  | 2 µM [falling, partial curve, poor fit]
36 | O=C(CSc1nnnn1-c1ccc(F)cc1)c1ccc(O)c(O)c1 | 2.82 µM [falling, full curve, poor fit] | 7.08 µM [falling, partial curve]
37 | CCc1ccc2oc(C(=O)NCc3ccncc3)c(C)c2c1 | 35.5 µM [rising, single point] | 
38 | O=C(c1ccccc1)c1nn(-c2ccccc2)c(=O)cc1C(F)(F)F | 12.6 µM [falling, partial curve] | 

Row | SMILES | AC50 [1] | AC50 [2]
39 | CC12CCC(C(=O)n3c1nc1ccccc13)C2(C)C (centres undefined) | 15.8 µM [rising, partial curve] | 
40 | CSc1ccc(Cc2ccc(Cl)cc2Cl)nn1 | 17.8 µM [rising, single point] | 
41 | CCCSC1=NC2(CCN(C(=O)NC3CCCCC3)CC2)N=C1c1ccc(OC)cc1 | 35.5 µM [rising, single point] | 
42 | CC1(C)CC(=O)C(C=NCC2CCN(C(=O)Cc3ccccc3)CC2)=C(O)C1 | 0.00316 µM [falling, full curve, poor fit] | 
43 | COc1ccc(-c2noc(C3CCCN(C(=O)Nc4ccccc4)C3)n2)cc1 (centres undefined) |  | 0.631 µM [rising, full curve, poor fit]
44 | C=CCc1ccc(OCCOc2cccc3cccnc23)c(OC)c1 | 31.6 µM [rising, single point] | 2.82 µM [rising, partial curve, poor fit]
45 | O=C(O)c1ccc(CS(=O)c2cccc(C(F)(F)F)c2)o1 (centres undefined) | 2.82 µM [rising, full curve] | 
46 | Cc1nc(-c2cccc(F)c2)sc1CCNC(=O)Cc1ccc(F)cc1 | 3.16 µM [falling, partial curve, poor fit] | 
47 | COc1ccc(C(=O)Nn2cc3c(c2-c2ccccc2)c(=O)n(C)c(=O)n3C)cc1 | 11.2 µM [falling, partial curve] | 
48 | C=CCc1cc(Cl)ccc1OCCCNCCO | 2 µM [falling, full curve] | 
49 | Cc1ccc(S(=O)(=O)Nc2ccccc2CNc2ccccn2)cc1 | 22.4 µM [rising, partial curve, poor fit] | 
50 | CC1CCN(CCCNC(=O)CN2C(=O)CSc3ccc(S(=O)(=O)N4CCCCC4)cc32)CC1 | 0.158 µM [falling, full curve, poor fit] | 
51 | O=C1C2C3CCC(C3)C2C(=O)N1CNc1ccccc1 (centres undefined) | 31.6 µM [falling, single point] | 35.5 µM [falling, single point]
52 | CCN1CCCC1CNC(=O)c1cc2c(-c3ccc(Cl)cc3)nn(C)c2s1 (centres undefined) | 35.5 µM [rising, single point] | 35.5 µM [rising, single point]
53 | CC1=NN(c2nc(-c3ccc(C)cc3)cs2)C(=O)C1N=Nc1ccc(C(N)=O)cc1 (centres undefined) | 3.55 µM [falling, partial curve] | 6.31 µM [falling, single point]
54 | O=C(c1cccs1)N1CCCc2cc(NS(=O)(=O)c3ccc(Br)cc3)ccc21 | 12.6 µM [rising, partial curve, poor fit] | 
55 | CN1CCN(C(=S)c2cn(Cc3ccccc3)c3ccccc23)CC1 | 28.2 µM [rising, single point] | 
56 | O=C(CN1c2cccc3cccc(c23)S1(=O)=O)Nc1cccc(S(=O)(=O)N2CCOCC2)c1 | 11.2 µM [rising, single point] | 
57 | CN(C)/C=C1/C(=O)N(c2ccc([N+](=O)[O-])cc2)N=C1c1ccccc1 | 14.1 µM [rising, partial curve] | 

— PubChem BioAssay AID1487 (National Center for Advancing Translational Sciences (NCATS), 2009)
